No constants are given. Whether binding was seen depends on the method and setting. In cells and extracts the contact can be indirect. A result given as binding can be weak or reduced; the word gives no strength.
Columns and labels:
[1] = target: 3xFLAG-ATPAF1 (human) (UniProt Q5TC12); test: co-IP; myc-SHP2, c-Src and FLAG-ATPAF1 co-transfected in SHP2 KO HEK 293 cells; lysis in 20 mM Tris-HCl pH 8.0, 137 mM NaCl, 2 mM EDTA, 10% glycerol, 0.5% NP-40; FLAG-beads 30 min at room temperature; blot for SHP2
[2] = target: 3xFLAG-ATPAF1 Y23F (human) (UniProt Q5TC12); test: as above

Sequences of proteins named here, by UniProt entry; tags and fusion partners are left off. A change or cut given only in a name is not applied to a line headed by its entry.
UniProt Q5TC12: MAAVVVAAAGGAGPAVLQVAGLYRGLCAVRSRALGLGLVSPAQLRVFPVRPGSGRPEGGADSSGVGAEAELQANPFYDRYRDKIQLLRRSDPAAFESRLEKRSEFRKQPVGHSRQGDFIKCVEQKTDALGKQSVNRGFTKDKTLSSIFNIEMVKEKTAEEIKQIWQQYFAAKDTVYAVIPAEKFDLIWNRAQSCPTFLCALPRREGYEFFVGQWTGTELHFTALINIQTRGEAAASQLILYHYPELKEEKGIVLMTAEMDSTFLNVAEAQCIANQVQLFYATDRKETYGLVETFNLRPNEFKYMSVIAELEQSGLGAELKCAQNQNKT

binding [1]: binds
binding [2]: binds
Substance: myc-SHP2^WT (from UniProt Q06124-2 1-593) (enzyme)
